PubChem BioAssay AID1159538, Gurdon Institute – 2015
Screen: 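Which E2 enzyme knock-downs change checkpoint kinase signalling after DNA breaks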. System: human U2OS osteosarcoma cells. Reagent: siRNA against human genes, about 60 nM siRNA. Challenge: ionising radiation, 10 Gy, cells collected 2 h later. Measured: 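After 10 Gy, western blot bands of pCHK1 divided by total CHK1, shown relative to luciferase control knock-down in percent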. Scale: pCHK1/CHK1, % of control: higher = more CHK1 phosphorylation after irradiation. Active means: 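Active when the pCHK1 to CHK1 ratio lies more than 40% above or below the control siRNA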. Calls: active = pCHK1/CHK1 changed (up or down); inactive = pCHK1/CHK1 near control.
In the full data, 20 (48%) are marked active. 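Active includes both rises and falls; each knock-down rests on a single immunoblot, so individual values are noisy.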 The numbers tell different reagents against one gene apart. Reagent sequences are not shown. Not given: the time to read-out.

Target gene,reagent,"pCHK1/CHK1, % of control",Call
UBE2R2 (ubiquitin conjugating enzyme E2 R2),1,63.1,inactive
UBE2C (ubiquitin conjugating enzyme E2 C),1,85.5,inactive
UBE2S (ubiquitin conjugating enzyme E2 S),1,97.2,inactive
UBE2H (ubiquitin conjugating enzyme E2 H),1,58.2,active
"CDC34 (cell division cycle 34, ubiquitin conjugating enzyme)",1,47.8,active
TSG101 (tumor susceptibility 101),1,99.8,inactive
UBE2E2 (ubiquitin conjugating enzyme E2 E2),1,117,inactive
UBE2A (ubiquitin conjugating enzyme E2 A),1,201,active
UBE2O (ubiquitin conjugating enzyme E2 O),1,58.6,active
UBE2U (ubiquitin conjugating enzyme E2 U),1,117,inactive
UBE2V1 (ubiquitin conjugating enzyme E2 V1),1,82.1,inactive
UBE2Q2 (ubiquitin conjugating enzyme E2 Q2),1,55.8,active
BIRC6 (baculoviral IAP repeat containing 6),1,104,inactive
UBE2J1 (ubiquitin conjugating enzyme E2 J1),1,60,active
UBE2K (ubiquitin conjugating enzyme E2 K),1,153,active
UBE2G2 (ubiquitin conjugating enzyme E2 G2),1,65.4,inactive
UBE2Z (ubiquitin conjugating enzyme E2 Z),1,55.7,active

Look-ups from above:
UBE2J1 (ubiquitin conjugating enzyme E2 J1), pCHK1/CHK1, % of control → 60
UBE2H (ubiquitin conjugating enzyme E2 H), pCHK1/CHK1, % of control: 58.2
Value of UBE2U (ubiquitin conjugating enzyme E2 U) under “Call”: inactive
UBE2S (ubiquitin conjugating enzyme E2 S), pCHK1/CHK1, % of control: 97.2
UBE2R2 (ubiquitin conjugating enzyme E2 R2), pCHK1/CHK1, % of control: 63.1
Result for UBE2C (ubiquitin conjugating enzyme E2 C) under “Call”: inactive

More records follow.
Target gene,reagent,"pCHK1/CHK1, % of control",Call
BRCA1 (BRCA1 DNA repair associated),1,68.7,inactive
UBE2E3 (ubiquitin conjugating enzyme E2 E3),1,79.5,inactive
UBE2L3 (ubiquitin conjugating enzyme E2 L3),1,55.3,active
"RBBP8 (RB binding protein 8, endonuclease)",1,79.6,inactive
UBE2D2 (ubiquitin conjugating enzyme E2 D2),1,33.2,active
UBE2D3 (ubiquitin conjugating enzyme E2 D3),1,2.53,active
UBE2Q1 (ubiquitin conjugating enzyme E2 Q1),1,107,inactive
UBE2N (ubiquitin conjugating enzyme E2 N),1,10.3,active
UBE2N (ubiquitin conjugating enzyme E2 N),2,63.9,inactive
UBE2NL (ubiquitin conjugating enzyme E2 N like (gene/pseudogene)),1,50.1,active
UBE2D1 (ubiquitin conjugating enzyme E2 D1),1,56.5,active
UBE2W (ubiquitin conjugating enzyme E2 W),1,58.7,active
UBE2F (ubiquitin conjugating enzyme E2 F (putative)),1,80,inactive
UBE2M (ubiquitin conjugating enzyme E2 M),1,116,inactive
UBE2B (ubiquitin conjugating enzyme E2 B),1,204,active
UBE2T (ubiquitin conjugating enzyme E2 T),1,54.6,active
UBE2E1 (ubiquitin conjugating enzyme E2 E1),1,121,inactive
UBE2G1 (ubiquitin conjugating enzyme E2 G1),1,90.3,inactive
AKTIP (AKT interacting protein),1,59.2,active
UBE2V2 (ubiquitin conjugating enzyme E2 V2),1,43.8,active
UBE2L6 (ubiquitin conjugating enzyme E2 L6),1,35.3,active
UEVLD (UEV and lactate/malate dehyrogenase domains),1,99,inactive
UBE2D4 (ubiquitin conjugating enzyme E2 D4),1,62.1,inactive
UBE2J2 (ubiquitin conjugating enzyme E2 J2),1,80.2,inactive
